Reference: patent publication US20230340141A1
Results are given in words; binding and its absence hold for the method and conditions named. Some binding calls cover weakened binding; strength is not graded here.

Chains of the proteins cited; added tags and fusions are not shown. Lines headed by an entry give the natural chain unless they say otherwise; changes in a name come on top. Residues count along the entry.
UniProt P06127: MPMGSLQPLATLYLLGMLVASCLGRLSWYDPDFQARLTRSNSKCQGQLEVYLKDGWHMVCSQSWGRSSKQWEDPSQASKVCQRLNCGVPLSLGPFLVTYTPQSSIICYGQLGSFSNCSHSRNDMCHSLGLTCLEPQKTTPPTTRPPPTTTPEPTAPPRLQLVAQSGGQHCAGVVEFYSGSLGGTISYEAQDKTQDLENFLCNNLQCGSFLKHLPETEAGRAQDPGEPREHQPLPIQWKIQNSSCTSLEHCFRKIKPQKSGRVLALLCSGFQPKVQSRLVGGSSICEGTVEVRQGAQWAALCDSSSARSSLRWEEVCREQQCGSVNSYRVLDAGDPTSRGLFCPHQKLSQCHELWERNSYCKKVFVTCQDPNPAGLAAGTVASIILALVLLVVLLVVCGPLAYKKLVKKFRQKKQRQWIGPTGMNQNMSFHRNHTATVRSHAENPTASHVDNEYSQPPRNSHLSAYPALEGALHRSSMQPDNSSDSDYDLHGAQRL
CD5 on human T cells: residues 25-495 of P06127
recombinant human CD5: residues 25-372 of P06127

Legend:
[1] = target: CD5 on human T cells (human) (UniProt P06127); test: flow cytometry on human T cells
[2] = target: recombinant human CD5 (human) (UniProt P06127); test: ELISA, plate-coated recombinant human CD5, HRP anti-human Fab detection, OD 450

- binding [1]: binds
- binding [2]: binds
B1: 9F2A11 anti-human CD5 monoclonal antibody (antibody, V domains shown)
VH: EVQLQESGAELVKPGASVKLSCTASGFNIKDSYMHWVKQRPEQGLEWIGRIDPANGDTQYDPKFQGKATITADTSSNTAYLQLSGLTSEDTAVYYCAREYRYAMDYWGQGTSVTVSS
VL: NIVLTQSPASLPVSLGQRATISCRASESVDSYGNSFMHWYQQKPGQPPKLLIYLASNLESGVPARFSGSGSRTDFILTIDPVEADDAATYYCQQNNEDPYTFGGGTKLEIK
